Reference: patent US20240260627A1, “FOOD INGREDIENTS FROM STEVIA REBAUDIANA” (PURECIRCLE USA INC., priority 2016, published 2024)

Assay: Sensory evaluation of chocolate samples
Conditions: sweetener composition 0.1%, 20 panelists, score 1 to 5, lower score = more pleasant

C=C1C[C@@]23CC[C@H]4[C@@](C)(CCC[C@@]4(C)C(=O)O[C@@H]4O[C@H](CO)[C@@H](O)[C@H](O)[C@H]4O)[C@@H]2CC[C@]1(O[C@@H]1O[C@H](CO)[C@@H](O)[C@H](O[C@@H]2O[C@H](CO)[C@@H](O)[C@H](O)[C@H]2O)[C@H]1O[C@@H]1O[C@H](CO)[C@@H](O)[C@H](O)[C@H]1O)C3 [Pure RebA 97, Rebaudioside A]
5: Bitterness | Licorice taste | Sweetness Lingering
